Measurements published in PMC7862700.
The other results are listed elsewhere or left out. The exact form of the protein is not confirmed.

These sequences were tested against T1, ETS1 (UniProt P14921) (assay: DAPPL (digital affinity profiling via proximity ligation, sequencing)). Details: 10 mM Tris-HCl pH 7.5, 50 mM NaCl, 1 mM DTT, 4% glycerol, room temperature, 30 min; GST-TFs on glutathione beads, 16-mer random dsDNA library, 0.1% …; high values mean tight binding; double strand, one strand shown; scale: fold enrichment (6-mer frequency, TF over GST control).
T1 sequence: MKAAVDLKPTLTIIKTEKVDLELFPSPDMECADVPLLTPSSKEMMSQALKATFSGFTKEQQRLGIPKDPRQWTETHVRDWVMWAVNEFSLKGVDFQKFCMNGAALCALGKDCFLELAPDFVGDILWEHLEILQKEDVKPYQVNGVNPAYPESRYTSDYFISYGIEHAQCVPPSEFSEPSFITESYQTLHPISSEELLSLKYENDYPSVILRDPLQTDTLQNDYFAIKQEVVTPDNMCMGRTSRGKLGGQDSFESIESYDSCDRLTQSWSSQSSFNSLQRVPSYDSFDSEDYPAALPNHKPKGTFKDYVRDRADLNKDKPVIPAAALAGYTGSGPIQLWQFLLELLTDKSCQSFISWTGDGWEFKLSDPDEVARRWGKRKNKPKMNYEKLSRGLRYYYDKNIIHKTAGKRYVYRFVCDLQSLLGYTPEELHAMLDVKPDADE

Sequence	binding signal
CCGTTC	1.56
TGGTCC	1.18
AAGCTT	1.24
CATCCT	1.65
TCAATT	1.24
ACCATC	1.13
TAAATG	1.24
CATATC	1.33
CTCGTC	1.43
CATTAC	1.08
CCTAAG	1.17
TCTTAT	1.35
CGGTTA	1.01
TCTATT	1.34
CTCGAA	1.27
TCTATA	1.15
ATGTTT	1.46
GCTATG	1.19
CGACCA	1.44
TAGCCT	1.25

Fetched one by one from the entries so far (two):
Sequence	binding signal
CGGTTA	1.01
TAAATG	1.24

Remaining list, next part.

Sequence	binding signal
TGCCTC	1.44
ACCAAA	1.07
TGGTAA	1.25
TGTCAT	1.1
CTGACA	1.19
TGTACG	1.22
TGATCA	1.03
AGCTAT	1.18
CGTTCT	1.48
AATAGT	1.23
TATGTT	1.24
CGGAAC	1.18
TGAACA	1.28
TGACAA	1.28
GTCCCG	1.17
GGGTTC	0.961
ACGTAC	1.21
GACTCC	1.37
ATTCGC	1.23
GTCGAC	1.06
